Test results taken from paper PMC7360964, “Auto‐inhibition of Mif2/CENP‐C ensures centromere‐dependent kinetochore assembly in budding yeast” (The EMBO Journal, 2020).
No constants are given. Whether binding was seen depends on the method and setting. Some entries that bind do so weakly or less than the wild type.

Chains of the proteins cited; added tags and fusions are not shown. Lines headed by an entry give the natural chain unless they say otherwise; changes in a name come on top. A line that says so, or that is headed by a name, gives the form on record, which may keep a tag or linker. Residues count along the entry.
GST-Mif2-N^1-41 (P35201, residues 1-41): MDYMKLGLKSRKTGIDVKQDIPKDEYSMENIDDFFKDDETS
GST-Mif2-N Arg11 to alanine (P35201, form named): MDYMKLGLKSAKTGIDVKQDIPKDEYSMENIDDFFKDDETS
Mif2-ΔsigAT (Mif2-Δ284–367), C-terminal Flag (P35201, form named): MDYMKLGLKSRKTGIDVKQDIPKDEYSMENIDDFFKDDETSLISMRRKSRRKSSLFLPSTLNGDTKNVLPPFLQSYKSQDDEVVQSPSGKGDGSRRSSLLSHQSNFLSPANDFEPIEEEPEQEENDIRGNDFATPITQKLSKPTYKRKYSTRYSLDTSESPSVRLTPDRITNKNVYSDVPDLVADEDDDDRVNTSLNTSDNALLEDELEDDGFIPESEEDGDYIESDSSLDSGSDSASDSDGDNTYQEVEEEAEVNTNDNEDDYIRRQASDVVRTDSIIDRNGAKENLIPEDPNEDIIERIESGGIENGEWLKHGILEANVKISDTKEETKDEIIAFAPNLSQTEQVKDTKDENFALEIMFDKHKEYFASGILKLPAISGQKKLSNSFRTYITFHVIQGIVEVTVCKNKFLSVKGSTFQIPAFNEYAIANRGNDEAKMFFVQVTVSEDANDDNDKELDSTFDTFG
GST-Ame1^1-30 (P38313, residues 1-30): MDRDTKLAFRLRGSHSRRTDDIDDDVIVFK
GST-Ame1-N Arg10 to alanine (P38313, form named): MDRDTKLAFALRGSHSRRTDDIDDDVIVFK

How the values were obtained:
[1] = biological target: GST-Mif2-N^1-41 (S. cerevisiae) (UniProt P35201); assay: pull-down; GST fusions on BSA-preblocked GSH Sepharose as bait at 1 μM, MN as prey at 3 μM; 1 h at 4°C; 10 mM HEPES pH 7.5, 200 mM NaCl, 0.05% Triton, 2.5% glycerol, 1 mM TCEP; Coomassie-stained gel; both purified
[2] = biological target: GST-Ame1^1-30 (S. cerevisiae) (UniProt P38313); assay: as above
[3] = biological target: GST-Ame1-N Arg10 to alanine (S. cerevisiae) (UniProt P38313); assay: as above
[4] = biological target: GST-Mif2-N Arg11 to alanine (S. cerevisiae) (UniProt P35201); assay: as above
[5] = biological target: Mif2-ΔsigAT (Mif2-Δ284–367), C-terminal Flag (S. cerevisiae) (UniProt P35201); assay: SEC; analytical SEC, equimolar mix at 10 μM each, Superose 6 3.2/30, 4°C; 20 mM HEPES pH 7.5, 150 mM NaCl, 2.5% glycerol, 1 mM TCEP; fractions on Coomassie-stained SDS-PAGE; both purified
[6] = biological target: FITC-Mif2^1-41 (S. cerevisiae) (UniProt P35201); assay: fluorescence polarisation; competition: 0.1 μM FITC-Mif2 1-41, 0.4 μM MN, Ame1-N from 0 to 40 μM; 30 mM Hepes pH 7.5, 150 mM NaCl, 1 mM TCEP, 23°C; both purified
[7] = biological target: Mif2-ΔsigAT (Mif2-Δ284–367), C-terminal Flag (S. cerevisiae) (UniProt P35201); assay: pull-down; Mif2-Flag variants from insect cell lysate immobilised on M2 Flag agarose, washed, as bait at 1 μM; MN as prey at 3 μM; 1 h at 4°C; pulldown buffer; eluted with Flag peptide; Coomassie and anti-His Western; both purified
[8] = biological target: GST-Mif2-N^1-41 (S. cerevisiae) (UniProt P35201); assay: pull-down; competition: GST-Mif2 1-41 on GSH Sepharose (1 μM), MN (3 μM) with increasing concentrations of Ame1 1-20 peptide; 1 h at 4°C; pulldown buffer; Mtw1 bands quantified; both purified

binding [1]: binds | binding [2]: binds | binding [3]: no binding (tested: 3 μM) | binding [4]: no binding (tested: 3 μM) | binding [5]: binds | binding [6]: binds | binding [7]: binds | binding [8]: binds
B1: Mtw1-Nnf1 heterodimer (MN) (complex, UniProt P39731 1-289; P47149 1-201)
chain 1: MSAPTMRSTSILTEHLGYPPISLVDDIINAVNEIMYKCTAAMEKYLLSKSKIGEEDYGEEIKSGVAKLESLLENSVDKNFDKLELYVLRNVLRIPEEYLDANVFRLENQKDLVIVDENELKKSEEKLREKVNDVELAFKKNEMLLKRVTKVKRLLFTIRGFKQKLNELLKCKDDVQLQKILESLKPIDDTMTLLTDSLRKLYVDSESTSSTEEVEALLQRLKTNGKQNNKDFRTRYIDIRTNNVLRKLGLLGDKEDEKQSAKPDARTQAGDIVSIDIEEPQLDLLDDVL
chain 2: MVNSHGIRYIRLKQVFNRALDQSISKLQSWDKVSSCFPQYVNSKQGAINVANCQRQLTEFWTELCQREFKEIMEERNVEQKLNELDELILEAKERYTDRDQDEVNKGPAIDELSSKELVECHLYSQRMHAIHEIDERLAKVNEMNDQLAQELKDLETQVEVEKNEIGKMYDEYLGSHTDQPANVLLVQSLNDMVLELKENY
